Experimental data as given in paper PMC10593786.
Results are given in words; binding and its absence hold for the method and conditions named. Some binding calls cover weakened binding; strength is not graded here. Where a sequence is shown, tags or fusion partners need not be part of it.

Sequences of proteins named here, by UniProt entry; tags and fusion partners are left off. Residues count along the entry.
UniProt Q64331, residues 1032-1262: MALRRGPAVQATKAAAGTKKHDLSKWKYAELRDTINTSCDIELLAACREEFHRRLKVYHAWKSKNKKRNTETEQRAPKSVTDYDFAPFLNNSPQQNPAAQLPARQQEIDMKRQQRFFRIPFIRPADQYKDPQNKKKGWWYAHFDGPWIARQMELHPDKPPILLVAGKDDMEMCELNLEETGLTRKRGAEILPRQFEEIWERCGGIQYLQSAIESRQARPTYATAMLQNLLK

Biological target: Myo6 ^YFPCBD (WT) (mouse) (UniProt Q64331)
Assay: MST; ^YFPCBD kept at 100 nM, Myo6 partner titrated (16 two-fold dilutions), 25 °C, 20 mM Bis-Tris pH 6.5, 100 mM KCl, 1 mM DTT, 0.05% Tween-20; both purified

B1: Dab2 His-650-end (tDab2) (domain or fragment, UniProt P98082 650-770)
chain: DVKEMFKDFQLRQPPAVPARKGEQTSSGTLSAFASYFNSKVGIPQENADHDDFDANQLLNKINEPPKPAPRQVSLPVTKSTDNAFENPFFKDSFGSSQASVASSQPVSSEMYRDPFGNPFA
- binding: binds
